Laboratory results: paper doi:10.1101/2025.11.14.688390
Results are given in words; binding and its absence hold for the method and conditions named. Binding seen in cells or lysates may run through a third protein. Some results given as binding are weak or reduced against the parent protein; the word gives no strength.

By UniProt entry, the sequences of proteins in these tests, tags left out. Where a name states a change or a piece, a line headed by the entry shows the natural chain unless it says otherwise. Chains listed by the source or under a name are the forms on record and can include a tag or linker.
V5-DNAJB6b Y53F (O75190, form named): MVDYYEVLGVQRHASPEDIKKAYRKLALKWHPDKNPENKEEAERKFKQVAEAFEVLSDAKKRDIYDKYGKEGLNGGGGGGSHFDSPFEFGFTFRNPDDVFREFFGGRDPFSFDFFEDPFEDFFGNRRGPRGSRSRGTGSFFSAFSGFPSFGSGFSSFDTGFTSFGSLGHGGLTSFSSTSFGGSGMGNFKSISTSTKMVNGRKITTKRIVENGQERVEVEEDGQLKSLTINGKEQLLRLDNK
V5-tagged DNAJB6b wild-type (O75190, form named): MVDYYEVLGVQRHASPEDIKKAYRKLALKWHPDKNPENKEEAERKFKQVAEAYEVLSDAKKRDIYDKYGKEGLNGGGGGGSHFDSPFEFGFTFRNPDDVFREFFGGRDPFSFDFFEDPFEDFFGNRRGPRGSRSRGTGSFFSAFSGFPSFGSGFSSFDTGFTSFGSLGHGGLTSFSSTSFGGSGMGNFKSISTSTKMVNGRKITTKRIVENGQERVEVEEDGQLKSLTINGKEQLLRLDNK
V5-DNAJB6b Y53E (O75190, form named): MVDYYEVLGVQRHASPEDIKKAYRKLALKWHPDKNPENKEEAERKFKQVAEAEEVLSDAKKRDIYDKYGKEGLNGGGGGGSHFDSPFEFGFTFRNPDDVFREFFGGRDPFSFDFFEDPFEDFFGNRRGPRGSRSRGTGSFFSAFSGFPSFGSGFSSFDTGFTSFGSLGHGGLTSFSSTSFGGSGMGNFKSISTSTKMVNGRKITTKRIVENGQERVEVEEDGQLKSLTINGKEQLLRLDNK
UniProt P0DMV8: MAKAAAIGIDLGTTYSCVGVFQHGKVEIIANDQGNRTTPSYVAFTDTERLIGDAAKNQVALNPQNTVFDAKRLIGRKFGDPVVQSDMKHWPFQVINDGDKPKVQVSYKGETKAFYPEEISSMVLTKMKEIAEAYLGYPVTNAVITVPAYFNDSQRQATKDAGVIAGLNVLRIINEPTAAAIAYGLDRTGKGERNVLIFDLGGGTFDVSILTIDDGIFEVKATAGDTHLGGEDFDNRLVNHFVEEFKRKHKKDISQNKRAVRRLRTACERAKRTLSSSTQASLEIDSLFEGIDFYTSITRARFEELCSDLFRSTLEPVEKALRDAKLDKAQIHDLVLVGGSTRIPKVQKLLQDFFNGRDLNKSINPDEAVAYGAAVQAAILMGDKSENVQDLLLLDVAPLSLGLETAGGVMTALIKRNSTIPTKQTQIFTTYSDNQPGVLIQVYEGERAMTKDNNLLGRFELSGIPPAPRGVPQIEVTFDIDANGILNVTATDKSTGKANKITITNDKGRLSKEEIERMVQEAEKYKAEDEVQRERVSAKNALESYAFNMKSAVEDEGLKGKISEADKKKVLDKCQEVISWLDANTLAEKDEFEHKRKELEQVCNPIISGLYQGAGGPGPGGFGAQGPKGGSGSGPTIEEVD
UniProt P11142: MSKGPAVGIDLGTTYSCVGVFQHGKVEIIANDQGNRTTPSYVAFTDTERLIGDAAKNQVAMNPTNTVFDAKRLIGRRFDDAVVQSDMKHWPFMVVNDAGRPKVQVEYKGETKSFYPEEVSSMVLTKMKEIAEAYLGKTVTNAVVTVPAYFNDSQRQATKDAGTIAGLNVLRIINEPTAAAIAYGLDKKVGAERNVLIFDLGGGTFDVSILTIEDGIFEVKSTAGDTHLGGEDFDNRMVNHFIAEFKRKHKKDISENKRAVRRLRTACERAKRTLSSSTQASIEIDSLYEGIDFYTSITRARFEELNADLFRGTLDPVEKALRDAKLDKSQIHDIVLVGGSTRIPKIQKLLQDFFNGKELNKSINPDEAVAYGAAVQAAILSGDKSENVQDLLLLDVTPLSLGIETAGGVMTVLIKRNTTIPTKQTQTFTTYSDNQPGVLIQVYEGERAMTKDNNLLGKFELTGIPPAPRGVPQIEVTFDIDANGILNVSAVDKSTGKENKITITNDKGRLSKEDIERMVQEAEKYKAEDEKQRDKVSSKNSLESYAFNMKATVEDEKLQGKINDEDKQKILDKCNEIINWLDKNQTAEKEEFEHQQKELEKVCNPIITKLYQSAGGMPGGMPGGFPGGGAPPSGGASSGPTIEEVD

What was measured:
[1] = target: V5-DNAJB6b Y53F (human) (UniProt O75190); assay: co-IP
[2] = target: V5-tagged DNAJB6b wild-type (human) (UniProt O75190); assay: co-IP
[3] = target: V5-DNAJB6b Y53E (human) (UniProt O75190); assay: co-IP
[4] = target: V5-DNAJB6b Y53F (human) (UniProt O75190); assay: proximity ligation
[5] = target: V5-tagged DNAJB6b wild-type (human) (UniProt O75190); assay: proximity ligation
[6] = target: V5-DNAJB6b Y53E (human) (UniProt O75190); assay: proximity ligation

binding [1] | binding [2] | binding [3] | binding [4] | binding [5] | binding [6] | Substance
binds | binds | binds | – | – | – | HSPA1A (from UniProt P0DMV8 1-641)
binds | binds | binds | binds weakly | binds | binds | HSPA8 (from UniProt P11142 1-646)
